This is an account of results in patent EP0324626A1, “1,4-Dihydropyridine derivatives” (priority 1988, dated 1989).

A short description of this data set: Acute toxicity test (limit test and range finding test), oral administration. The note with it: both, ICR, mouse, in vivo. The method, then:
The limit test and the range finding test were carried out using the SPF mice, as stated below, and LD₅₀ values were determined.
The dead mice are weighed and organ examinations are carried out for macroscopical lesions. Also, on the last day of the test all surviving mice are sacrificed and used for examinations.
If the mortality is more than 50% in the limit test, the range finding test is carried out for 14 days with three doses groups including the putative LD₅₀ value. The method is same as the foregoing limit test.

Some results are limits rather than exact numbers.

As to `COC(=O)C1=C(C)NC(C)=C(C(=O)OC)C1c1ccccc1[N+](=O)[O-]` [Nifedipine, reference compound], the median lethal dose (LD50) at 14 days is less than 500 mg/kg.

Broadly, the LD50 is the dose expected to kill half of the subjects tested.
